# From patent US20080113868A1, “Colorant compositions and their use as pH sensitive color indicators” (priority 2006, published 2008)
# Experiment: Skin staining test
# Type: in vivo, human
# Set-up: key: 1: no change from pre-washed color; 2: slight removal of color; 3: removal of about 50% of color; 4: less than 25% color remaining; 5: slight to no stain remaining
# Settings: palm of volunteer, dried 15 minutes, washed with liquid soap and warm water; visual rating
row,Molecule,Skin staining Rating Scale Value
1,"CN(C)c1ccc(C(=C2C=CC(=[N+](C)C)C=C2)c2ccccc2)cc1 [Comp. Colorant 4, Basic Green 4, reference compound]",3
2,"Phenyl-methyliumylidene-di(4,1-phenyleneamino)N,N-polyethyleneoxy(5), Chloride [Colorant 8]",5
3,"Phenyl-methyliumylidene-di(4,1-phenyleneamino)N,N-polyethyleneoxy(10), Chloride [Colorant 1]",5
